Reference: the supplement of paper PMC10331698
± gives the standard deviation of the averaged measurements. Most values lie at the level of the controls, where differences are scatter.

What was measured:
Assay in all cases: level (log10 ratio to DMSO vehicle control); higher = higher biomarker level / cell amount than vehicle control
[1] = compound: O=S(=O)(O)C(F)(F)C(F)(F)C(F)(F)C(F)(F)F [Perfluorobutanesulfonic acid] (in DMSO)
Protocol: (§1)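 BioMAP Diversity Plus panel of 12 human primary cell co-culture systems (3C, 4H, LPS, SAg, BT, BF4T, BE3C, CASM3C, HDF3CGF, KF3CT, MyoF, Mphg). Compounds were added 1 h before stimulation and left for 24 h (MyoF 48 h; BT 72 h for soluble read-outs or 6 d for IgG). Biomarkers were read by ELISA, cytotoxicity by SRB, PBMC viability and proliferation by Alamar Blue. Each well value was divided by the mean of 8 DMSO control wells on the same plate and log10 transformed; duplicate blinded samples were tested at 4 concentrations.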

Perfluorohexanoic acid = compound: O=C(O)C(F)(F)C(F)(F)C(F)(F)C(F)(F)C(F)(F)F [Perfluorohexanoic acid] (in DMSO)
Protocol: as §1

[2] = compound: CNS(=O)(=O)C(F)(F)C(F)(F)C(F)(F)C(F)(F)C(F)(F)C(F)(F)C(F)(F)C(F)(F)F [N-Methylperfluorooctanesulfonamide] (in DMSO); details: 2200 nM
Protocol: as §1

[3] = compound: FC(F)(F)C(F)(F)C(F)(F)C(F)(F)CCI [1H,1H,2H,2H-Perfluorohexyl iodide] (in DMSO); details: 2200 nM
Protocol: as §1

[4] = compound: OCC(F)(F)OC(F)(F)C(F)(F)OC(F)(F)CO [1H,1H,8H,8H-Perfluoro-3,6-dioxaoctane-1,8-diol] (in DMSO); details: 2200 nM
Protocol: as §1

[5] = compound: OCC(F)(F)C(F)(F)C(F)(F)C(F)(F)C(F)(F)C(F)(F)F [6:1 Fluorotelomer alcohol] (in DMSO); details: 2200 nM
Protocol: as §1

Hexafluoroglutaric acid = compound: O=C(O)C(F)(F)C(F)(F)C(F)(F)C(=O)O [Hexafluoroglutaric acid] (in DMSO)
Protocol: as §1

[6] = compound: O=C(O)CCC(F)(F)C(F)(F)C(F)(F)F [3:3 Fluorotelomer carboxylic acid] (in DMSO); details: 2200 nM
Protocol: as §1

[7] = compound: O=C(O)C(F)(F)C(F)(F)C(F)(F)OC(F)(C(F)(F)F)C(F)(F)F [Perfluoro-4-isopropoxybutanoic acid] (in DMSO); details: 2200 nM
Protocol: as §1

[8] = compound: C=C(C)C(=O)OCCC(F)(F)C(F)(F)C(F)(F)C(F)(F)C(F)(F)C(F)(F)F [6:2 Fluorotelomer methacrylate] (in DMSO); details: 2200 nM
Protocol: as §1

[9] = compound: O=C(O)C(F)(OC(F)(F)C(F)(F)C(F)(F)F)C(F)(F)F [Ammonium perfluoro-2-methyl-3-oxahexanoate] (in Water)
Protocol: as §1

[10] = compound: FC(F)(F)C(F)(F)CNCC(F)(F)C(F)(F)F [Bis(1H,1H-perfluoropropyl)amine] (in DMSO); details: 2200 nM
Protocol: as §1

[11] = compound: OCC(F)(F)C(F)(F)C(F)(F)C(F)(F)C(F)(F)C(F)(F)CO [1H,1H,8H,8H-Perfluorooctane-1,8-diol] (in DMSO); details: 2200 nM
Protocol: as §1

[12] = compound: OCC(F)(F)C(F)(F)C(F)(F)C(F)F [1H,1H,5H-Perfluoropentanol] (in DMSO); details: 2200 nM
Protocol: as §1

[13] = compound: OCCCC(F)(F)C(F)(F)C(F)(F)C(F)(F)C(F)(F)C(F)(F)C(F)(F)C(F)(F)F [3-(Perfluorooctyl)propanol] (in DMSO); details: 2200 nM
Protocol: as §1

[14] = compound: FC(F)(F)COC(OCC(F)(F)F)OCC(F)(F)F [tris(Trifluoroethoxy)methane] (in DMSO); details: 2200 nM
Protocol: as §1

[15] = compound: O=C(O)C(F)(OC(F)(F)C(F)(OC(F)(F)C(F)(OC(F)(F)C(F)(F)C(F)(F)F)C(F)(F)F)C(F)(F)F)C(F)(F)F [Perfluoro-(2,5,8-trimethyl-3,6,9-trioxadodecanoic)acid] (in DMSO); details: 370 nM
Protocol: as §1

Test System	level (log10) ([1]; 2200 nM)	level (log10) ([1]; 6700 nM)	level (log10) ([1]; 20000 nM)	level (log10) ([1]; 60000 nM)	level (log10) (Perfluorohexanoic acid; 2200 nM)	level (log10) (Perfluorohexanoic acid; 6700 nM)	level (log10) (Perfluorohexanoic acid; 20000 nM)	level (log10) (Perfluorohexanoic acid; 60000 nM)	level (log10) [2]	level (log10) [3]	level (log10) [4]	level (log10) [5]	level (log10) (Hexafluoroglutaric acid; 2200 nM)	level (log10) (Hexafluoroglutaric acid; 6700 nM)	level (log10) (Hexafluoroglutaric acid; 20000 nM)	level (log10) (Hexafluoroglutaric acid; 60000 nM)	level (log10) [6]	level (log10) [7]	level (log10) [8]	level (log10) ([9]; 2200 nM)	level (log10) ([9]; 6700 nM)	level (log10) ([9]; 20000 nM)	level (log10) ([9]; 60000 nM)	level (log10) [10]	level (log10) [11]	level (log10) [12]	level (log10) [13]	level (log10) [14]	level (log10) [15]
HDF3CGF:CXCL9/MIG	-0.0175 ± 0.021	-0.01 ± 0.0085	-0.0145 ± 0.0092	-0.0035 ± 0.005	-0.0265 ± 0.047	0.004 ± 0.0099	0.001 ± 0.0099	-0.019 ± 0.034	-0.0015 ± 0.012	-0.007 ± 0.023	0.0265 ± 0.012	-0.0055 ± 0.00071	0.007 ± 0.0057	-0.013 ± 0.014	-0.025 ± 0.011	-0.005 ± 0.013	0.0075 ± 0.049	0.0065 ± 0.022	-0.0055 ± 0.013	-0.018 ± 0.02	-0.011 ± 0.028	-0.02 ± 0.014	-0.016 ± 0.064	-0.0015 ± 0.0021	0.0135 ± 0.0064	-0.011 ± 0.047	0.003 ± 0.031	-0.009 ± 0.0014	-0.0305 ± 0.05
HDF3CGF:CXCL10/IP-10	0.005 ± 0.0042	-0.0075 ± 0.0078	-0.0105 ± 0.005	-0.0195 ± 0.0021	-0.0235 ± 0.022	-0.0135 ± 0.023	-0.0215 ± 0.0035	-0.0235 ± 0.013	-0.059 ± 0.041	0.003 ± 0.033	0.002 ± 0.017	-0.007 ± 0.0042	-0.019 ± 0.057	0.0035 ± 0.021	-0.008 ± 0.0071	-0.011 ± 0.037	-0.006 ± 0.013	-0.015 ± 0.0071	-0.0055 ± 0.005	0.007 ± 0.014	0.002 ± 0.013	-0.0085 ± 0.00071	-0.0025 ± 0.012	0.0075 ± 0.023	0.0035 ± 0.016	-0.01 ± 0.024	-0.012 ± 0.021	0 ± 0.0014	0.0155 ± 0.0092
HDF3CGF:CXCL11/I-TAC	-0.001 ± 0.037	-0.0235 ± 0.00071	0.005 ± 0.0028	-0.005 ± 0.0014	-0.021 ± 0.054	0.0045 ± 0.005	0.0005 ± 0.021	-0.021 ± 0.031	-0.0145 ± 0.0021	0.0095 ± 0.021	0.0195 ± 0.012	-0.013 ± 0.016	-0.0065 ± 0.005	0.014 ± 0.0014	-0.011 ± 0.072	-0.0115 ± 0.061	-0.0025 ± 0.013	0.018 ± 0.0057	-0.009 ± 0.016	-0.0015 ± 0.005	0.002 ± 0.0057	-0.0045 ± 0.019	0.002 ± 0.0099	-0.0015 ± 0.0021	-0.004	-0.0065 ± 0.049	-0.023 ± 0.033	-0.0155 ± 0.011	0.0035 ± 0.036
HDF3CGF:Collagen I	-0.0035 ± 0.081	0.0175 ± 0.037	-0.003 ± 0.025	0.0345 ± 0.043	0.0395 ± 0.029	-0.035 ± 0.033	0.02 ± 0.025	-0.0035 ± 0.054	0.0285 ± 0.026	0.0515 ± 0.026	0.0135 ± 0.056	0.001 ± 0.0071	0.009 ± 0.098	-0.03 ± 0.014	-0.0385 ± 0.0078	0.0105 ± 0.071	0.0095 ± 0.03	0.032 ± 0.042	0.01 ± 0.064	-0.024 ± 0.038	-0.029 ± 0.031	0.0015 ± 0.005	-0.0095 ± 0.0092	-0.012 ± 0.0099	-0.017 ± 0.041	0.0375 ± 0.06	0.0545 ± 0.06	0.035 ± 0.092	0.0155 ± 0.019
HDF3CGF:Collagen III	-0.0055 ± 0.011	-0.013 ± 0.048	0.035 ± 0.016	0.047 ± 0.016	0.044 ± 0.016	0.0515 ± 0.013	0.0305 ± 0.0092	-0.0245 ± 0.071	-0.065 ± 0.02	0.014 ± 0.0099	0.0065 ± 0.012	-0.012 ± 0.071	0.006 ± 0.03	-0.0065 ± 0.015	-0.0275 ± 0.00071	-0.0125 ± 0.00071	-0.005 ± 0.0085	0.008 ± 0.0014	-0.0185 ± 0.022	0.0165 ± 0.0035	-0.0055 ± 0.0064	-0.015 ± 0.041	-0.0705 ± 0.028	0.037 ± 0.04	-0.016 ± 0.013	-0.03 ± 0.03	-0.009 ± 0.037	-0.008 ± 0.038	-0.081 ± 0.017
HDF3CGF:EGFR	-0.0145 ± 0.061	0.0105 ± 0.005	-0.032 ± 0.048	-0.0205 ± 0.032	-0.093 ± 0.15	0.027 ± 0.017	0.03 ± 0.021	0.003 ± 0.081	0.027 ± 0.027	0.016 ± 0.0085	0.0205 ± 0.0092	0.003 ± 0.057	-0.0215 ± 0.028	-0.021 ± 0.061	-0.0285 ± 0.056	-0.021 ± 0.072	-0.0105 ± 0.011	0.007 ± 0.0042	0.0265 ± 0.037	0.012 ± 0.013	-0.017 ± 0.014	0.0145 ± 0.026	0.0535 ± 0.005	0.022 ± 0.05	-0.0305 ± 0.0035	0.006 ± 0.013	-0.032 ± 0.0028	0.0055 ± 0.015	0.0095 ± 0.073
HDF3CGF:M-CSF	0.014 ± 0.028	0.011 ± 0.0085	0.0045 ± 0.0035	0.0025 ± 0.005	-0.01 ± 0.0099	-0.015 ± 0.059	0.013 ± 0.021	-0.006 ± 0.05	0.007 ± 0.013	-0.011 ± 0.0071	0.011 ± 0.013	0.034 ± 0.018	-0.0255 ± 0.0064	-0.0015 ± 0.013	-0.006 ± 0.033	-0.0285 ± 0.029	0.009 ± 0.017	-0.0065 ± 0.0021	-0.02 ± 0.0028	-0.0455 ± 0.022	-0.0345 ± 0.00071	-0.0245 ± 0.013	-0.0595 ± 0.035	0.0025 ± 0.005	0.0285 ± 0.0035	-0.0525 ± 0.077	0.0145 ± 0.00071	0.0035 ± 0.022	0.005 ± 0.028
HDF3CGF:MMP-1	-0.0155 ± 0.0035	0.0085 ± 0.011	0.002 ± 0.013	-0.0165 ± 0.036	0.0185 ± 0.00071	0.0155 ± 0.036	0.0045 ± 0.016	-0.0145 ± 0.043	0.0035 ± 0.00071	0.003 ± 0.0042	-0.007 ± 0.0057	-0.013 ± 0.028	-0.005 ± 0.014	0.0195 ± 0.0092	0.002 ± 0.02	-0.0045 ± 0.021	0.015 ± 0.023	0.001 ± 0.0099	0.0035 ± 0.0035	-0.005 ± 0.0085	0.0035 ± 0.016	0.011	0.008 ± 0.0085	-0.006 ± 0.023	-0.008 ± 0.016	-0.015 ± 0.0071	0.017 ± 0.014	-0.0145 ± 0.0035	0.018 ± 0.028
